# Results from one PubChem assay

Source: PubChem BioAssay AID1159506 (NCATS, 2015).

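Genome-wide siRNA knockdown in TC32 Ewing sarcoma cells, comparing luciferase light from an NR0B1-promoter reporter with a CMV-promoter reporter 48 hours after transfection. Each siRNA was applied at 20 nM. A z-score of the log NR0B1-over-CMV signal, less the median of siRNAs with the same seed; more negative means a stronger specific loss of the NR0B1 reporter.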

This is part of the screen; most of the strongest results are not listed here. Sequences are the guide (antisense) strand, without overhang.

strand,target gene,seed-corrected z-score
UCAGAGAUCUGUCCGUACU,CIRBP,1.042
UGGAUUCCCAGGGCAAAGG,SLCO4A1,1.495
UAGUCGACCAAAACCACGC,PTPRE,0.1644
UGUCUAGAUACCACUGUUC,FAM161B,-1.177
AUAGUCAUCACAUCCCGCC,STYK1,0.1227
UAUCUGAUUGUCCGGAUUC,NFIX,0.1343
UUCUCCUGCAAAGUGUUGG,LOC442132,-0.04735
UUUUGAAUACUUCUUUAGC,C12orf60,1.238
UCCUGAUGAACUUCUGCCC,PIK3R5,-0.6191
UUUGUUGGAACGAUUCAUG,GTF2H3,-1.063
AAAAUUCCGAUGUCUGCUU,C1orf234,-0.4834
UAUCUUCAGAUCAGCGUGG,LRPAP1,-0.08046
UUUAGCAUCACUGCAACGU,COMMD6,0.02359
UUUAAAAUGCCUAUAGUCU,TCEAL7,0.6223
UCUACGAUAAUCUCGACUG,TRA2B,-0.01282
UUUCAGACCAGGUCCUUGG,CELF1,0.3537
AAAGAGGUAACCUUCAGGG,MGRN1,-0.8345
UCUUGUCUUGUAAUUCUGC,VWA5A,0.117
AAAGGUAAACAGGAGUCUG,CLP1,-1.27
UCUUUAAUUCCAACAGUGG,AOAH,0.4424
UAGGAAGUAAUGGGCAUAC,CCNJL,0.4908
UACUUUGCUUAUCAAUUUC,TRO,-0.4116
UACAUUUUUCUUUCGCUUC,PRAME,0.03658
UGAGCUUCAGGCAUGAUCU,PPFIA4,0.6858
UCCAUAACCAUAGUGGGCA,FLG2,-0.7663
AAAGGAUCAAACCAUUUCC,LAGE3,-0.1323
UUCUUAUCGAGGCCGAUGG,SAMD14,0.381
UUCAUCGGAAUGUAUAAGC,PTPRZ1,0.1343
UGUUGUAACAGGGAUGAGG,JAG1,0.4596
UAUUCGAAUGCUUGGAUCC,SLC4A10,-0.006023
UUGUUGUCAAUACUGCUCC,NUFIP1,0.2513
UUAGCGAUGCAGACAACCC,RGAG1,0.7758
UUUAGGUAAAGUUUCGAUG,NAP1L4,0.002356
UGAAUAACAUAACCUAUUG,PLSCR1,-0.1412
UAUCUUCCCACAGGGCUUU,CCDC70,0.6364
UAGGGUCUCUAUCAGCUCG,ALG14,-0.3641
UACGGUAUGAUUGCAGGAG,SDAD1,-0.2915
AGUUGUCAUAGUUAUCUGC,IST1,-1.069
UCUGUUACUUGAUGGACUG,SUCLA2P1,-0.8725
UCUGCAGACACUCUUCUGG,C6orf47,0.3614
UCUAGGGAAUUCUUCAUCC,BNIPL,0.6346
UCAUCUAUCACAAGGUUCA,SNRPG,-1.928
UUUGAUCUCAGCUAAGGUC,ARMCX5,-0.1358
UAGGCGUUUCACACGCAGC,PCSK1N,0.5436
UGUCAAACAGGAGAAAUGC,MYL1,0.04313
UAAGUGGGAACAUCGCGUC,PDE9A,-0.1435
UAGUCUCAAAGUCUCAUCC,PRDX1,-0.9194
UUUGACAUUCUCAUGCUGC,GPD1,-0.0175
UUCUGAUACAGACACUUCU,GEM,-0.02671
UCCGUUCAGAUGCAAACCG,SNTG2,-0.004465
UGAGAUUCAGCCGUAGUGU,EMILIN1,0.1988
UGUUGUUUCACUGGAAUAA,CD24,-0.2541
UCAGGGUUAAGAUCACCUG,ARRDC5,0.3629
UGUGCAUUUUGAUGAGUUC,KLF15,0.102
UUCUUGUCAUUGGUGUUGC,OR1J1,-0.8792
AAUGGGAUGAGAGUUGGAG,C9orf139,-0.1728
AUAAUGAUAAGCUCAAAUG,SLC2A5,0.5888
UCAGCGAAGGAGAUCUGGU,GSTP1,0.7514

The first 5 entries again:

strand	target gene	seed-corrected z-score
UCAGAGAUCUGUCCGUACU	CIRBP	1.042
UGGAUUCCCAGGGCAAAGG	SLCO4A1	1.495
UAGUCGACCAAAACCACGC	PTPRE	0.1644
UGUCUAGAUACCACUGUUC	FAM161B	-1.177
AUAGUCAUCACAUCCCGCC	STYK1	0.1227